In PubChem BioAssay AID1487 (National Center for Advancing Translational Sciences (NCATS), 2009):
The list shows a part of the results. Further columns of the screen follow, without active or inactive calls. Most of these compounds were active or inconclusive in the main read-out, so they are no random draw. The note in brackets gives the kind of curve behind each potency; many fits are weak.

Test: qHTS Assay for Modulators of Lamin A Splicing
Conditions: HeLa LMNA splicing GFP/RFP minigene ratio, 48 h
Summary of the method: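 S3 HeLa stable clones carrying a lamin A-EGFP splicing minigene plus DsRed2 were seeded at 600 cells/well in Opti-MEM with 2% FBS, pin-dosed and incubated 48 h at 37°C. Acumen cytometry (488 nm) gave the GFP/RFP total-intensity ratio.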

[1] = measured here: RFP viability control channel
[2] = measured here: GFP splicing reporter channel

Row | Structure (SMILES) | AC50 [1] | AC50 [2]
1 | Fc1ccccc1CNC(=S)Nc1ccc(Cl)cc1 | 35.5 µM [rising, single point] | –
2 | CCOc1ccc(CC(=O)NCCS(=O)(=O)N2CCN(c3ccccc3OC)CC2)cc1 | – | 35.5 µM [falling, single point]
3 | Cc1cc(C)n(CCc2nc(-c3ccc(C(C)(C)C)cc3)cs2)n1 | 35.5 µM [rising, partial curve] | –
4 | COc1ccc(-c2ccc(NS(=O)(=O)c3ccccc3)cc2)nn1 | 14.1 µM [falling, partial curve, poor fit] | –
5 | CN(C)CCNC(=O)Cc1ncc(C(F)(F)F)cc1Cl | – | 0.501 µM [rising, full curve]
6 | O=C(N/N=C/c1cn(CCOc2ccccc2)c2ccccc12)c1ccncc1 | 15.8 µM [rising, single point] | 14.1 µM [rising, partial curve]
7 | O=C(COC(=O)c1ccccc1Nc1ccc(SC(F)F)cc1)NC1CC1 | 14.1 µM [rising, partial curve] | –
8 | CCCc1cc2c(=O)c(-c3ccc4c(c3)OCCO4)coc2cc1OS(C)(=O)=O | 35.5 µM [rising, single point] | –
9 | COC(=O)COc1cccc2c(=O)n(CC(=O)NCCc3ccc(OC)c(OC)c3)ccc12 | 0.0316 µM [falling, full curve, poor fit] | 0.00891 µM [falling, full curve]
10 | O=C1OCC2=C1C(c1ccc(F)cc1)c1cc3c(cc1N2)OCO3 (stereo not drawn) | 0.0631 µM [falling, full curve, poor fit] | 0.282 µM [falling, full curve]
11 | CCOC(=O)c1cc(-c2ccccc2)n(CCC(=O)Nc2ccc(OC)c(Cl)c2)c1C | – | 12.6 µM [rising, partial curve, poor fit]
12 | C=CC1=C2C=C(C3CC3)N(CCCN(CC)CC)C=C2C(=O)C(C)(OC(=O)c2ccco2)C1=O (stereo not drawn) | 0.00447 µM [falling, full curve] | –
13 | N#Cc1c(NCCN)nc(-c2ccco2)c2c1CCCC2 | 12.6 µM [rising, single point] | –
14 | O=C(O)c1cc(O)c2c(c1)[C@H]([C@H]1c3cc(C(=O)O)cc(O)c3C(=O)c3c(O[C@@H]4OC(CO)C(O)C(O)C4O)cccc31)c1cccc(O[C@@H]3OC(CO)C(O)C(O)C3O)c1C2=O (stereo partly drawn) | 14.1 µM [falling, single point] | 35.5 µM [falling, single point]
15 | CC(C)CNC(=S)NNC(=O)c1csc2c1CCCC2 | 14.1 µM [rising, single point] | –
16 | COc1ccc2[nH]cc(CCNc3ncnc4ccc(-c5ccccc5OC)cc34)c2c1 | 25.1 µM [falling, single point] | 22.4 µM [falling, single point]
17 | CC(C)C(=O)NNC(=O)CSc1nc(C2CCCCC2)nc2ccccc12 | 3.98 µM [rising, full curve, poor fit] | –
18 | CCC(C)(C)NC(=O)c1cc(S(=O)(=O)N2CCCCC2)ccc1N1CCOCC1 | 0.0316 µM [falling, full curve, poor fit] | 0.891 µM [falling, full curve, poor fit]

Fetched by compound from above, two records:
Row | Structure (SMILES) | AC50 [1] | AC50 [2]
7 | O=C(COC(=O)c1ccccc1Nc1ccc(SC(F)F)cc1)NC1CC1 | 14.1 µM [rising, partial curve] | –
11 | CCOC(=O)c1cc(-c2ccccc2)n(CCC(=O)Nc2ccc(OC)c(Cl)c2)c1C | – | 12.6 µM [rising, partial curve, poor fit]

Further compounds.

Row | Structure (SMILES) | AC50 [1] | AC50 [2]
19 | COc1ccc(C2=CC(c3cc(OC)c(OC)c(OC)c3)NC(=S)N2)cc1 (stereo not drawn) | 35.5 µM [rising, single point] | –
20 | Cc1noc(C)c1S(=O)(=O)Nc1ccc(C(=O)N2CCc3ccccc3C2)cc1 | 12.6 µM [rising, partial curve, poor fit] | 10 µM [rising, partial curve, poor fit]
21 | c1ccc2sc(Nc3nc4cc5c(cc4s3)OCO5)nc2c1 | 17.8 µM [rising, partial curve, poor fit] | 22.4 µM [rising, partial curve, poor fit]
22 | COc1ccc(OC)c(CN2CCC(C(=O)N3CCN(c4ccccc4F)CC3)CC2)c1 | 35.5 µM [rising, single point] | 35.5 µM [rising, single point]
23 | CCN(CC)C(=O)CCCC(=O)N(CC)CC | 2.51 µM [falling, full curve] | –
24 | CCOC(=O)c1sc(NC(=O)CCSC)nc1C | 3.98 µM [falling, single point] | –
25 | Cc1ccc(Cc2nc3ccccc3nc2SCC(=O)N2CCCCC2)cc1 | 17.8 µM [rising, single point] | –
26 | CCOc1ccccc1NC(=O)c1c(NCc2ccc(C)o2)sc2c1CCCCC2 | 10 µM [rising, partial curve] | –
27 | CCOC(=O)CSc1ncnc2c1cnn2-c1ccc(Cl)cc1 | 35.5 µM [rising, single point] | –
28 | Oc1ccc(/C=C\c2cc(O)cc(O)c2)cc1 | – | 6.31 µM [falling, partial curve]
29 | Cc1cc(O)ccc1Nc1nc2ccccc2nc1Nc1ccc(O)cc1C | 10 µM [rising, single point] | –
30 | Nc1cccc(C2=Nc3cccc4cccc(c34)N2)c1 | 0.447 µM [rising, full curve, poor fit] | –
31 | Cc1sc(N/N=C/c2ccco2)nc1-c1ccccc1 | – | 35.5 µM [rising, single point]
32 | COc1ccccc1CNc1ncnc2ccc(-c3cccc(NS(C)(=O)=O)c3)cc12 | 17.8 µM [falling, partial curve] | 14.1 µM [falling, partial curve]
33 | CCn1c(SCC(=O)N/N=C/c2cc(OC)c(OC)c(OC)c2)nc2ccccc21 | 20 µM [rising, partial curve] | 11.2 µM [rising, partial curve]
34 | CCOc1ccc(OCCCCn2ccnc2)cc1 | 12.6 µM [rising, partial curve] | 11.2 µM [rising, partial curve]
35 | CCOC(=O)c1c(NC(=O)CCl)sc(C(=O)N(CC)CC)c1C | 12.6 µM [rising, partial curve] | –
36 | O=C(c1cccc(NS(=O)(=O)c2cccc(F)c2)c1)N1CCN(c2ccccc2)CC1 | 17.8 µM [rising, single point] | –
